Assay results: the supplement of paper PMC3334620
The full ranking holds about 33,000 sequences; the median of “E-score (-0.5 to 0.5)” is about -0.0059, and the highest 2% start at about 0.26. The list shows a part of the results.

biological target: T1, Cin5 (UniProt P40917); experiment: PBM E-score (8-mer binding enrichment) (E-score (-0.5 to 0.5)); higher = stronger / more preferred TF binding; details: protein concentration: 100 nM; construct: GST-full length
T1 sequence: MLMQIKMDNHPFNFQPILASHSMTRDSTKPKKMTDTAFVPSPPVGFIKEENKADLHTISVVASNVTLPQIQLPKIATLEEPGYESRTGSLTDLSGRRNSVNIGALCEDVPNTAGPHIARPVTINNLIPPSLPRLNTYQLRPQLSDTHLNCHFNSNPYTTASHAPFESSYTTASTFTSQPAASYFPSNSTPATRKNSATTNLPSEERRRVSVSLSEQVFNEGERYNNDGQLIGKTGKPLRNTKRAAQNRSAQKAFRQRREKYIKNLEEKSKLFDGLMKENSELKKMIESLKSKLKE
Method in brief: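 Yeast transcription factors, full-length or as DNA-binding domains, were expressed with a GST tag using PURExpress in vitro transcription/translation. At about 100-200 nM they were applied to universal all-10-mer Agilent arrays, double-stranded by primer extension on fresh or once-stripped slides. Fluorescent anti-GST detected bound protein, and masliner normalised the scans. E-scores for ungapped eight-base words, pooled with reverse complements, came from the Universal PBM Analysis Suite.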

Sequence	PBM E-score
CAGGTTCA	-0.159
CCAAGGAG	-0.073
GCGATCTA	0.068
CGTGTGAA	-0.0465
ATCGAGAC	-0.0281
ATCGTGCA	0.0702
AGCCATAT	0.0514
GTTCATAA	0.0958
GTCTGTTA	0.194
AATCTACC	0.138
GACACCTA	-0.0562
ATTGATAG	0.151
ACACTTCT	0.0539
AGGGCGGC	-0.264
CAGCAGTC	-0.0173
CCATATAC	0.221
ATATAACA	0.284
CTATGAAA	0.0722
CGCTGAGA	0.0327
TGCGTACA	-0.0796
TACAACAA	0.244
ACTGTCCG	-0.0755
GCCAGAAA	0.205
CTGTGGTA	0.0732
AACCTTAC	0.152

Sequence	PBM E-score
CTGGGAAC	-0.0173
ACTTTGGA	0.0534
GGTTTAAC	0.0198
GCATCCAC	0.0722
ATGCGTTG	-0.00188
ACTCTCTC	-0.0161
GACTTAAA	-0.16
ACTGTTTG	0.106
AGTATACA	0.135
ACAAGAAT	0.0397
CAGAGCAG	-0.00566
ACGGCCCG	-0.182
AATTGTAC	0.198
GAGTGCGA	-0.11
CAACATAC	0.125
ACTTCACA	0.0564
CCCAACGC	0.0858
CTTAAGCC	0.0161
ACCGGATC	0.0836
GGACAAGA	-0.0182
ATATTCAA	0.203
CCTAAGAA	-0.118
GTCCCCCA	-0.217
GCAATGCC	-0.0242
CCACGTAA	0.165

As entered above.
GACTTAAA | PBM E-score: -0.16
GCATCCAC | PBM E-score: 0.0722
CCACGTAA | PBM E-score: 0.165
AATTGTAC | PBM E-score: 0.198
ACGGCCCG | PBM E-score: -0.182
GAGTGCGA | PBM E-score: -0.11
ACTTCACA | PBM E-score: 0.0564

The list continues:

Sequence	PBM E-score
AACGATAC	0.0238
GCCGAAAC	-0.162
GCATCGCA	-0.227
AATTAGAT	0.294
GATAGTCC	-0.0317
CCACTCCG	0.0499
GATTGAGA	0.181
AAGGTTGG	-0.0399
GTATTGGA	-0.0766
AAGCTACG	-0.0898
CTTAGTCA	0.236
CAGTAATC	0.15
AGACAAAG	-0.00115
AACTTTAT	0.123
GCCATGTA	0.104
TAATAACA	0.146
ACGATCCA	-0.0778
ACTGACAT	0.0171
GGCTAAAA	-0.193
CCTCTAAC	-0.0941
AGACGAGA	0.0138
ATAGATCC	0.0534
ATTTTACG	0.271
CGAATGAG	0.0389
GGGACGTA	0.0216

Sequence	PBM E-score
AAAAGTGT	-0.0219
CTTGGGCA	0.0219
GCTCCCCA	-0.265
CAACATGG	0.0788
ATGGCACG	-0.0722
ACCCTGCA	0.0478
ATAGATTC	0.0139
AACGATTA	0.141
ATCGGCGA	-0.164
ATACGTAT	0.247
CTGTAGCC	-0.21
ATTATGTC	0.27
GGGCAGGA	-0.00266
AAGCTTCC	-0.208
TGTAGCAA	0.0167
GCTCACCA	-0.0057
AATTACCA	0.187
CGCTTACA	0.315
GCCCATAA	-0.171
GAATCGAC	0.146
CTAACCTA	0.101
GAGACTGA	-0.0461
CTAAGTAG	0.125
AGAATACC	0.207
AGTACCGG	-0.115

Sequence	PBM E-score
GACCGGGC	-0.222
CGAGACTC	-0.0407
GAGGTCGC	-0.0922
TAGTTTAA	0.0531
AGTGGCCA	-0.0707
CATGCATG	0.0529
AACTCATT	-0.0089
ACCGCCGT	-0.00785
GCGTAGCA	0.0183
TAACCCTA	0.0924
CCGTTCCC	-0.0654
GAGCAGCA	-0.0583
ACAGCAAT	0.2
ATACGATC	0.16
GATCTGCC	0.0369
AAAGAATC	0.0204
CGCTACTC	-0.0371
ACTTCGAT	0.2
AAGGGGTG	-0.196
GCCTGCAA	-0.0798
AGTGTAGC	-0.0211
AGAGCTAG	-0.0596
CTAGAGGA	-0.279
GTAGTCAC	-0.185
GAAAAGTA	0.203

Sequence	PBM E-score
AATGTGCA	0.0522
AAGTTTCC	0.0769
TTGCGAAA	0.0737
GGAGTGCA	-0.0092
AAGCAAGC	0.0852
AGTGAGCG	-0.0798
GTAAATAC	-0.014
GAATGAGA	0.115
AGCATGGG	-0.192
AGAAATAC	0.0692
AGGATACG	-0.255
AACAAATT	0.274
CTTTCTTC	0.0293
CGATGTAG	-0.0299
CTAACGGA	0.158
GGAACATA	0.0465
AGTATTTA	0.0905
AGCTAGCT	0.128
GAGGAGGC	-0.199
AACACGGT	0.0055
CTGAAACA	-0.0676
ATGGTAGA	0.0341
CTTCAAAC	-0.00221
AGCTAGTA	0.147
GCGATGAA	0.0131

Sequence	PBM E-score
CCTGTTTA	0.0718
CACGTGGC	-0.317
CGAGTAAG	0.24
GGCCCACA	-0.149
GGACCACC	-0.00836
CTTAAACC	-0.192
GACAATCA	0.0666
ATCCGTAC	0.0842
ACATGCAA	0.0885
ACAAGTGG	-0.044
CGATGAAC	-0.0667
CCTCGCGA	-0.00083
AGGCGGTC	-0.211
GTTACTCA	0.0831
CTTGCGCA	0.103
CCGACGGC	-0.201
CGTGATGC	0.0885
CGGGATGC	-0.113
GCGCATTA	0.147
AGATCTTA	0.00186
CTTTGCGC	0.123
CATTTCGC	0.111
